Test in all cases: log2 fold change, soluble protein after heating vs DMSO (PISA); higher = thermal stabilisation; K562 cells, 10 uM, 30 min; active = over 0.2 and 3.5 SD of the protein, either way, in both replicates (recomputed)
Compound in assay [1]: CC[C@@H]1C(=O)N(C)c2cnc(Nc3ccc(C(=O)NC4CCN(C)CC4)cc3OC)nc2N1C1CCCC1
The method in brief: (§1)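 For each measurement, 10 μM compound was applied for 30 min to K562 cells at 2×10^6 cells/mL. Aliquots were heated for 3 min across 48°C-58°C, pooled, and extracted in PBS with 0.5% NP-40 at 4°C; the supernatant after 21,000xg for 90 min was soluble protein. This was quantified by TMTpro 16plex LC-MS/MS with channel sums equalised, and thermal stability was reported relative to control samples from duplicates, on a log2 fold-change scale.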

Chains of the proteins cited; added tags and fusions are not shown. Lines headed by an entry give the natural chain unless they say otherwise; changes in a name come on top.
UniProt P62136, whole entry, looked up: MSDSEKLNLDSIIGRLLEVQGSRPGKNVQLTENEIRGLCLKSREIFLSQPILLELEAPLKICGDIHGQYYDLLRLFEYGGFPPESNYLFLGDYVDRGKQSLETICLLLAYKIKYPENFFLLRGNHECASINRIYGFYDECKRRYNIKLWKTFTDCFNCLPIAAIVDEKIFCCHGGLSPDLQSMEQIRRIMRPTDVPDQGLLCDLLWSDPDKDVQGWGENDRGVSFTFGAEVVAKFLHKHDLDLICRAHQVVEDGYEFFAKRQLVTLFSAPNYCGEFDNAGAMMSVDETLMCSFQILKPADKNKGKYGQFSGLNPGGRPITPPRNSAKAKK
UniProt P50336: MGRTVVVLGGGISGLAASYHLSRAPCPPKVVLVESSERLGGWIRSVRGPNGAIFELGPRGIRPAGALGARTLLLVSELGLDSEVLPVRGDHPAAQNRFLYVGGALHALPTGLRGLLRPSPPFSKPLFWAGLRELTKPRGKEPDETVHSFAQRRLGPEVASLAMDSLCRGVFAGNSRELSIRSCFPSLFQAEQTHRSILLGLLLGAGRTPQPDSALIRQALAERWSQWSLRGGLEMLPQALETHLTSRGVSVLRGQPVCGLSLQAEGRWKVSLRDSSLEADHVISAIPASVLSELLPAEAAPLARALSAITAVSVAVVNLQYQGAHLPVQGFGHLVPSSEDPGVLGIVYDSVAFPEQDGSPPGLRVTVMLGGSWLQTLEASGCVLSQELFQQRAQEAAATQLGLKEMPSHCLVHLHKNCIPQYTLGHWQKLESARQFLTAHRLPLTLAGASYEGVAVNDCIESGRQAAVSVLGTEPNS
UniProt Q9ULJ8: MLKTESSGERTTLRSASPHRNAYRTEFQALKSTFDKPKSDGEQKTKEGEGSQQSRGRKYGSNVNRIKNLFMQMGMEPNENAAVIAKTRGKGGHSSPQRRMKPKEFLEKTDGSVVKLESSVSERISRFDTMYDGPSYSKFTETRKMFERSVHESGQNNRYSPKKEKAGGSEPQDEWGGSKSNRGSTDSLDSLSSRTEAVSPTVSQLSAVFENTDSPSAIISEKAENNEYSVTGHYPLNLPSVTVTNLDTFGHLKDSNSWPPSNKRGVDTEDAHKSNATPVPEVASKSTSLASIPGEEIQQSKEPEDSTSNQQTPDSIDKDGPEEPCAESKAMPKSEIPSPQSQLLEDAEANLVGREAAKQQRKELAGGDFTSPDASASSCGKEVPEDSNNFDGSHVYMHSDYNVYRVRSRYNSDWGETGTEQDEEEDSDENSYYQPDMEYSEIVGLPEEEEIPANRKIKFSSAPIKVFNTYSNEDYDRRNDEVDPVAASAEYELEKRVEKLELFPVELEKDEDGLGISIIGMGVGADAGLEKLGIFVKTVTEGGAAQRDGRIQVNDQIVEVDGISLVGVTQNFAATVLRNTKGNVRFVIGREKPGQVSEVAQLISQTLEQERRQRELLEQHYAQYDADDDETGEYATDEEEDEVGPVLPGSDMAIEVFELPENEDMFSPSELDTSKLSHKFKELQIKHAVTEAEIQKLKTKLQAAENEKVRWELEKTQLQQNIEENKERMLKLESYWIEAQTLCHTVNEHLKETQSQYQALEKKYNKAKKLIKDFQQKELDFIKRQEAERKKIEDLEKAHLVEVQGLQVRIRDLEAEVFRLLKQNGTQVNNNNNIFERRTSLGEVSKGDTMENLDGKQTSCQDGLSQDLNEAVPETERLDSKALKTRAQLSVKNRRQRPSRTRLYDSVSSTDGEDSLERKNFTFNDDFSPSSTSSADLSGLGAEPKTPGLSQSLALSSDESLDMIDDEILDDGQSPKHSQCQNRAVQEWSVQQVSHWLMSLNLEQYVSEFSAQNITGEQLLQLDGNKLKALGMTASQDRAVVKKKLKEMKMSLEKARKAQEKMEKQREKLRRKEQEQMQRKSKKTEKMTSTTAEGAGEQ
UniProt O15355: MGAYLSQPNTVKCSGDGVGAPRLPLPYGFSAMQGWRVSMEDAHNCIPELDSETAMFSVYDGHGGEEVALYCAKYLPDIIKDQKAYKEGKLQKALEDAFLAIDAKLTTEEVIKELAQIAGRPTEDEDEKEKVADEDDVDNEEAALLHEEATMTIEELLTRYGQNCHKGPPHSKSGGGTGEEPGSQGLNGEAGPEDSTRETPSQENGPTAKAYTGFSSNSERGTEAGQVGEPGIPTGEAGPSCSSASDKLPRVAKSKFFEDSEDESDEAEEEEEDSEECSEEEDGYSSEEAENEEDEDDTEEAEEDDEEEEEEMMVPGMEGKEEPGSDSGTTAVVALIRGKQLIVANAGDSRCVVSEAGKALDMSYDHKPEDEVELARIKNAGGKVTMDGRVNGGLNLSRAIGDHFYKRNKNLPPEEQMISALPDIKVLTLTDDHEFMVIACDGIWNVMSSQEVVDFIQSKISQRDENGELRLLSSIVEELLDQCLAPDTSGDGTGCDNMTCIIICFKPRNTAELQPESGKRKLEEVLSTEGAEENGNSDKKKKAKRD
UniProt Q9NR22, whole entry, looked up: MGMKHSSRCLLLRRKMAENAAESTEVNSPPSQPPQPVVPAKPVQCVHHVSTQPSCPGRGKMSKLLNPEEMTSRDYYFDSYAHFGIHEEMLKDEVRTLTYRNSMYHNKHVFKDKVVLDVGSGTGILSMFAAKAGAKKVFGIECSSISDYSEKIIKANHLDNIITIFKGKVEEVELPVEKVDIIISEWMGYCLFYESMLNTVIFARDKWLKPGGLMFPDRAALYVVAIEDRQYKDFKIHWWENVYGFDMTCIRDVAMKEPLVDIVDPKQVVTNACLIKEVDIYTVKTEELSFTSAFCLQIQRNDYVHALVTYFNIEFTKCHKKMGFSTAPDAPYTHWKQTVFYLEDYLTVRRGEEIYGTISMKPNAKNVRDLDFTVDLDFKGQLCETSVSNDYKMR

Compound in the next assay: CC[C@@H]1C(=O)N(C)c2cnc(Nc3ccc(C(=O)N[C@H]4CC[C@H](N5CCN(CC6CC6)CC5)CC4)cc3OC)nc2N1C(C)C [volasertib]
The method in brief:
as §1

Compound in assay [2]: CC[C@H](C)N1C=C(C2=C(C=C(C=C21)C3=CN=C(C=C3)N4CCNCC4)C(=O)NCC5=C(C=C(NC5=O)C)C)C
Put shortly:
as §1

Compound in a further assay: CC[C@H](C)[C@@H](C(=O)N[C@@H]([C@@H](C)O)C(=O)N[C@@H](CC(C)C)C(=O)[C@]1(CO1)C)NC(=O)[C@H]([C@@H](C)CC)N(C)C(=O)C [epoxomicin]
The method in brief: as §1

Compound in assay [3]: CCn1cc(-c2ccnc3[nH]c(-c4cccc(CN(C)C)c4)cc23)c(-c2ccc(NC(=O)N(C)C)cc2)n1
Put shortly: as §1

Compound in assay [4]: CN(C)CC(=O)Nc1ccc2[nH]c(=O)c3ccccc3c2c1
The method in brief:
as §1

Compound in assay [5]: CN1C2=C(C3=C1C(=O)N(N=C3)CC4=CC(=CC=C4)N)SC(=C2)S(=O)C
Put shortly: as §1

Compound in assay [6]: CN1CCC(CNc2ccc3ncc(-c4cccc(OC(F)(F)F)c4)n3n2)CC1
The method in brief: as §1

Compound in another assay: CN1CCN(CCOc2cc(OC3CCOCC3)c3c(Nc4c(Cl)ccc5c4OCO5)ncnc3c2)CC1 [saracatinib]
The method in brief:
as §1

Compound in a further assay: CN1CCN(c2nc(C3=C(c4c[nH]c5ccccc45)C(=O)NC3=O)c3ccccc3n2)CC1 [sotrastaurin]
Put shortly:
as §1

Compound in a further assay: CN1CCc2c(c3ccccc3n2Cc2ccc(C(=O)NO)cc2)C1 [Tubastatin A]
The method in brief: as §1

Compound in assay [7]: CNC(=O)C1=CC=CC=C1NC2=NC(=NC=C2Cl)NC3=C(C=C(C=C3)N4CCOCC4)OC
The method in brief: as §1

Compound in the next assay: CNC(=O)c1ccc(Nc2ncc(C(F)(F)F)c(NCc3nccnc3N(C)S(C)(=O)=O)n2)cc1 [defactinib]
The method in brief:
as §1

Compound in another assay: CNCc1ccc(-c2[nH]c3cc(F)cc4c3c2CCNC4=O)cc1 [rucaparib]
The method in brief:
as §1

Compound in assay [8]: CNc1nc(-c2ccc3c(N)n[nH]c3c2)cc(N2C[C@@H](C(=O)NC3CCCCC3)CC[C@H]2C)n1
Put shortly:
as §1

Compound in a further assay: COC(=O)N[C@@H](C)CNc1nccc(-c2cn(C(C)C)nc2-c2cc(Cl)cc(NS(C)(=O)=O)c2F)n1 [encorafenib]
The method in brief:
as §1

Compound in assay [9]: COC(=O)[C@H](CCSC)NC(=O)C1=C(C=C(C=C1)NC[C@H](CS)N)C2=CC=CC=C2
The method in brief:
as §1

Compound in the next assay: CN(CCOC1=CC=C(C=C1)C[C@H]2C(=O)NC(=O)S2)C3=CC=CC=N3 (racemic) [rosiglitazone]
Put shortly:
as §1

The list shows a part of the results.

The results in this text go back to the supplement of paper PMC10849652.

Take PPP1CA (UniProt P62136): the log2 fold change in assay [1] is inactive: -0.014; with volasertib, inactive: -0.061; in assay [2], inactive: 0.003; with epoxomicin, inactive: 0.02; in assay [3], inactive: -0.041; in assay [4], inactive: -0.033. In addition, the log2 fold change in assay [5] is inactive: -0.077; in assay [6] it was inactive: 0.011; with saracatinib, inactive: 0.036; in the assay with sotrastaurin, inactive: -0.03; with Tubastatin A it was inactive: -0.024; in assay [7], inactive: -0.009. For the same target, the log2 fold change with defactinib is inactive: -0.033; with rucaparib it was inactive: -0.008; in assay [8], inactive: -0.028; with encorafenib, inactive: -0.009; in assay [9], inactive: 0.018.
For the target PPOX (UniProt P50336), the log2 fold change in assay [1] was inactive: -0.134; with volasertib, inactive: -0.023; in [2], inactive: -0.017; with epoxomicin, inactive: -0.002; in [3] it was inactive: -0.052; in [4] it was inactive: 0.008. The log2 fold change was inactive: -0.164 in assay [5]; active: -0.583 in assay [6]; inactive: -0.087 in the assay with saracatinib; inactive: 0.02 with sotrastaurin; inactive: -0.045 with Tubastatin A; active: 0.534 in assay [7]. Moreover, the log2 fold change with defactinib is inactive: -0.07; with rucaparib, inactive: -0.059; in assay [8], inactive: 0.274; in the assay with encorafenib, inactive: -0.018; in assay [9] it was inactive: -0.01.
In the case of PPP1R9A isoform 3 (UniProt Q9ULJ8), the log2 fold change in [1] is inactive: 0.247; in [2], inactive: -0.018; in the assay with epoxomicin it was inactive: -0.226; in [4] it was inactive: -0.187; with rosiglitazone, inactive: -0.087; in assay [5] it was inactive: 0.135. In addition, the log2 fold change in the assay with saracatinib was inactive: -0.065; with sotrastaurin, inactive: 0.092; with defactinib, inactive: 0.079; with rucaparib, inactive: 0.295; in assay [8] it was inactive: -0.1; with encorafenib it was inactive: 0.121. Besides, the log2 fold change in [9] was inactive: -0.005.
Turning to PPM1G (UniProt O15355), the log2 fold change in assay [1] is inactive: -0.208; with volasertib it was active: -0.381; in assay [2], inactive: 0.066; in the assay with epoxomicin, inactive: 0.087; in [3], inactive: -0.073; in [4], inactive: 0.098. The log2 fold change in assay [5] was inactive: 0.017; in [6], inactive: -0.025; in the assay with saracatinib, inactive: -0.086; in the assay with sotrastaurin, inactive: -0.213; with Tubastatin A, inactive: 0.187; in assay [7], inactive: 0.108. Moreover, the log2 fold change in the assay with defactinib was inactive: -0.226; with rucaparib, inactive: -0.088; in assay [8], inactive: -0.038; in the assay with encorafenib it was inactive: 0.085; in [9], inactive: -0.104.
As for PRMT8 (UniProt Q9NR22), the log2 fold change in [1] was inactive: 0.019; with volasertib it was inactive: -0.074; in assay [2], inactive: 0.011; with epoxomicin it was inactive: 0.017; in assay [3] it was inactive: -0.087; in assay [4], inactive: -0.022. Further, the log2 fold change in assay [5] was inactive: -0.117; in assay [6], inactive: -0.009; with saracatinib, inactive: 0.015; with sotrastaurin, inactive: -0.046; in the assay with Tubastatin A, inactive: -0.09; in [7] it was inactive: -0.009. For the same target, the log2 fold change was inactive: -0.039 with defactinib; inactive: -0.059 with rucaparib; inactive: 0.052 in assay [8]; inactive: 0.01 with encorafenib; inactive: -0.122 in [9].
